# The other results are listed elsewhere or left out.
# Amino acid sequences for entries named in this document (tags omitted). A change or cut given only in a name is not applied to a line headed by its entry.
# UniProt P07384: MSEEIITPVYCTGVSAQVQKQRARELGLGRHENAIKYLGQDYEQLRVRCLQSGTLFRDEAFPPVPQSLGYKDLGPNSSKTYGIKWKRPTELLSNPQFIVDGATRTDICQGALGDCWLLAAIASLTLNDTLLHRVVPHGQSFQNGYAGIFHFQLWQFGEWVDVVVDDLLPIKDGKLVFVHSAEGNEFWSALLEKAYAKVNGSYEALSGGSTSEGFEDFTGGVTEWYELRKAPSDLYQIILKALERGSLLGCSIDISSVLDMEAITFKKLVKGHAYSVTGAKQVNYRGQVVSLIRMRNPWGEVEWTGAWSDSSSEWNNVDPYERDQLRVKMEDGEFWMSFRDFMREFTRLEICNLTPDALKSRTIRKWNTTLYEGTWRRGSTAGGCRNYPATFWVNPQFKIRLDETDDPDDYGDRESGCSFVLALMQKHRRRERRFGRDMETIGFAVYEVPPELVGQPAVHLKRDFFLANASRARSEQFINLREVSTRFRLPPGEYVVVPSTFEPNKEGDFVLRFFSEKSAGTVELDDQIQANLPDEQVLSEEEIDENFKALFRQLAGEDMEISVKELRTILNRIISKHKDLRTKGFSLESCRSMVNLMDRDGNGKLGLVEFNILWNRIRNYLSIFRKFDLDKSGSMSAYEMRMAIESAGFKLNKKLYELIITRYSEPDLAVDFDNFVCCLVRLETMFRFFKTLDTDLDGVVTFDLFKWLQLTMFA
# UniProt P17655: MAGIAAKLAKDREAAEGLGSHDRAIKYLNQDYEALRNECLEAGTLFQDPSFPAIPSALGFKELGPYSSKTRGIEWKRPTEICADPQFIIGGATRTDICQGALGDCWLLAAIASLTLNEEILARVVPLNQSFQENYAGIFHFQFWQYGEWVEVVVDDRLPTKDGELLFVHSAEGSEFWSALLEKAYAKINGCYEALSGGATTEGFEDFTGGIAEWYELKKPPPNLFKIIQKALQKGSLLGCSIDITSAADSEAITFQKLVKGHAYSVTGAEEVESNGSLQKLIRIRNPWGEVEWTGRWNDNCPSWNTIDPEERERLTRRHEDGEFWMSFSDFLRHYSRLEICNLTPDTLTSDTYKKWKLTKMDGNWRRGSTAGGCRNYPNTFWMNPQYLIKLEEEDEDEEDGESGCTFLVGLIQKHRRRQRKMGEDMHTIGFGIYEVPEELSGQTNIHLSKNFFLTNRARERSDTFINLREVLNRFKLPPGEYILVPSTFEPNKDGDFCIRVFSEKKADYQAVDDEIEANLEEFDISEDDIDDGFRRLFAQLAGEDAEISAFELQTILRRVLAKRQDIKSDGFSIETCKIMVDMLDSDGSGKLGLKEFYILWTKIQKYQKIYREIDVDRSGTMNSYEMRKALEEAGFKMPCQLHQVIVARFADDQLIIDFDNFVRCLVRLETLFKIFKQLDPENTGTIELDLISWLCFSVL
# UniProt P49368: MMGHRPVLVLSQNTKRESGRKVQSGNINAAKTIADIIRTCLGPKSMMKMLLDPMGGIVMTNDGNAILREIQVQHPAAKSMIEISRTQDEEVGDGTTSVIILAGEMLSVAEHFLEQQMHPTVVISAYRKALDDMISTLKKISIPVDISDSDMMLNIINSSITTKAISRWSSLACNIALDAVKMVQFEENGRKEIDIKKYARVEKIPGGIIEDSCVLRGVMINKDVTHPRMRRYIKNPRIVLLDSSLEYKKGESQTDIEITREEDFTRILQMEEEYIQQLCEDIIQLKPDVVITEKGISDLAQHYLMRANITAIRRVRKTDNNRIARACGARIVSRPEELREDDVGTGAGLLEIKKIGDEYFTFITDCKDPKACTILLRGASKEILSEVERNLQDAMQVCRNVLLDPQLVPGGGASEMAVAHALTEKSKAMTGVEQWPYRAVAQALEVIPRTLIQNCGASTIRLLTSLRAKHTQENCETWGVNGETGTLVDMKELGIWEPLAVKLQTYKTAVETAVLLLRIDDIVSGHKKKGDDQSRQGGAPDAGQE
# UniProt Q8N163, whole entry, looked up: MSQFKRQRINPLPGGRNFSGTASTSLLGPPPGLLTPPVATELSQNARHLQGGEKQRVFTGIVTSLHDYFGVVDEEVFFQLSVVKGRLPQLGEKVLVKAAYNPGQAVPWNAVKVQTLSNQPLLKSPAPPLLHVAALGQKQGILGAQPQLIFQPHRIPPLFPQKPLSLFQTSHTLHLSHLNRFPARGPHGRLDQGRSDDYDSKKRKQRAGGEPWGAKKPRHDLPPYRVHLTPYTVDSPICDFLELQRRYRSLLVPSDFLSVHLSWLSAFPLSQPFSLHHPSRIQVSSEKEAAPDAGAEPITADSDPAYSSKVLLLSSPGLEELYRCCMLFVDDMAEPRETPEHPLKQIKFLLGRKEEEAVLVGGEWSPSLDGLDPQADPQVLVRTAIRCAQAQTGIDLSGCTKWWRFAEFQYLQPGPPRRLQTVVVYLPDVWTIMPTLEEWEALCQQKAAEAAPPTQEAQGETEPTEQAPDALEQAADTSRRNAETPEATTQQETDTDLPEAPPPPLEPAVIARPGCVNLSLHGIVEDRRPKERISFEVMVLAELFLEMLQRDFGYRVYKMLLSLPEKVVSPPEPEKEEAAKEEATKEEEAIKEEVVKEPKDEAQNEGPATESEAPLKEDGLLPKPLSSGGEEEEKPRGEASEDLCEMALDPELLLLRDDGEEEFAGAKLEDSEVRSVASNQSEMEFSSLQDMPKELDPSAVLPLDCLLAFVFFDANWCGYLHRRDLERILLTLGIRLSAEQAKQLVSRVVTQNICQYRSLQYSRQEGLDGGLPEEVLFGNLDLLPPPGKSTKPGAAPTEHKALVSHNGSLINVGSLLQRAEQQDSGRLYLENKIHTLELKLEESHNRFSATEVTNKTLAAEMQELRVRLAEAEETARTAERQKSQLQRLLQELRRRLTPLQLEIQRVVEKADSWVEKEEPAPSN
# UniProt P49589: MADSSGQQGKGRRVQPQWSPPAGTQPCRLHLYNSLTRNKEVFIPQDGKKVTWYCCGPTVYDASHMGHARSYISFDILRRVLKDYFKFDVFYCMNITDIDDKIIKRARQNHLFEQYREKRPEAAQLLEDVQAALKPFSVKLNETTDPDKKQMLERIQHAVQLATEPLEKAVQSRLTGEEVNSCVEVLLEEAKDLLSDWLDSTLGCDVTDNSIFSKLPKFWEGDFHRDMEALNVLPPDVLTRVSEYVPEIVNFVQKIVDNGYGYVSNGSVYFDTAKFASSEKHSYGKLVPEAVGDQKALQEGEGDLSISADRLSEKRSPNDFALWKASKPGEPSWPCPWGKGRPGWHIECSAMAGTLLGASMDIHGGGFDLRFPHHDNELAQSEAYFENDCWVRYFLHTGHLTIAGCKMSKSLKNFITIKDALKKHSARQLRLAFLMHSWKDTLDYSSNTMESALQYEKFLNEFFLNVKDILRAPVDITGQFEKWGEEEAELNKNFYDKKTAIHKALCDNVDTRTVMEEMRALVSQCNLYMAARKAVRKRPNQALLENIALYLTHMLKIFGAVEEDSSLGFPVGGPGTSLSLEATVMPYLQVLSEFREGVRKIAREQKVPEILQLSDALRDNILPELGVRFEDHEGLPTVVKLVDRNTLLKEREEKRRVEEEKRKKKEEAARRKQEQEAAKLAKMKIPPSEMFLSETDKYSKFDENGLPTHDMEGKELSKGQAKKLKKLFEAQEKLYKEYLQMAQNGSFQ
# UniProt Q13951, whole entry, looked up: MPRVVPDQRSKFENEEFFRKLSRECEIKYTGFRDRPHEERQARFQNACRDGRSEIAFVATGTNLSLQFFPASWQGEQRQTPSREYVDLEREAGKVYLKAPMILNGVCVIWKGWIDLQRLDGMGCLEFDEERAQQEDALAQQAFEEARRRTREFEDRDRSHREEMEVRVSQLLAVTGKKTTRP
# UniProt Q01518, whole entry, looked up: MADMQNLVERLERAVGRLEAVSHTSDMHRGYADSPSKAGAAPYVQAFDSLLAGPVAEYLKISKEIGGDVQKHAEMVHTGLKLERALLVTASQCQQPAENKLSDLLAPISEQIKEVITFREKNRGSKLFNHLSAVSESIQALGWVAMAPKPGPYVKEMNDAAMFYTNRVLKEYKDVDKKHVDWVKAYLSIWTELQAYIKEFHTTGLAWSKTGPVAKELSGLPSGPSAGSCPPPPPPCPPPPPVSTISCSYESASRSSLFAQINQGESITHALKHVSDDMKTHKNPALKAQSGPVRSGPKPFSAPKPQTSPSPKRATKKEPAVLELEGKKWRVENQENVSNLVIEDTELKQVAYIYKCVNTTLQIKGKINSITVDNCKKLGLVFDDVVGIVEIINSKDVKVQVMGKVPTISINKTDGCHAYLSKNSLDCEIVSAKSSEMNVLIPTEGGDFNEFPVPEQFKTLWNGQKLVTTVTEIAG
# UniProt Q9Y6W3: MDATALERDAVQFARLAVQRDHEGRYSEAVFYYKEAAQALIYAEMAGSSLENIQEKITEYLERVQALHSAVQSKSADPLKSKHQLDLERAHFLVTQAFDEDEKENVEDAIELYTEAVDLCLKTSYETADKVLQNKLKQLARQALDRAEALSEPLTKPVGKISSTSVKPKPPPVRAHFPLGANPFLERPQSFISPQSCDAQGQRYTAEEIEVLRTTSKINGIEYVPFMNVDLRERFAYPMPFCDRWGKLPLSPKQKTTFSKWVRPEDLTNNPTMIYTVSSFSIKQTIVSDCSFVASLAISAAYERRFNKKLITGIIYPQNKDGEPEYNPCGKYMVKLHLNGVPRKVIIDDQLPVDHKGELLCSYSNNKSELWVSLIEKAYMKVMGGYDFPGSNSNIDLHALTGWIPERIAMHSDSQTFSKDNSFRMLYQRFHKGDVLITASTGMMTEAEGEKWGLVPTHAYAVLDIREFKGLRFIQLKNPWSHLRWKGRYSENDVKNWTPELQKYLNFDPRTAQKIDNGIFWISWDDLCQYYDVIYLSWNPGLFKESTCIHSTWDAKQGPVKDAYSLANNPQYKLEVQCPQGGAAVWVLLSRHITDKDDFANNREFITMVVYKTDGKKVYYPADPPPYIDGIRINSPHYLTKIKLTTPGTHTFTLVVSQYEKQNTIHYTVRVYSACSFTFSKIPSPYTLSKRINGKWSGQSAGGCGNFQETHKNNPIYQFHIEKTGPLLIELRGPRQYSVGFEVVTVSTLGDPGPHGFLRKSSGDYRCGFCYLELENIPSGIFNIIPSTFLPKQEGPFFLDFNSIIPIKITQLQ
# UniProt Q96ER9: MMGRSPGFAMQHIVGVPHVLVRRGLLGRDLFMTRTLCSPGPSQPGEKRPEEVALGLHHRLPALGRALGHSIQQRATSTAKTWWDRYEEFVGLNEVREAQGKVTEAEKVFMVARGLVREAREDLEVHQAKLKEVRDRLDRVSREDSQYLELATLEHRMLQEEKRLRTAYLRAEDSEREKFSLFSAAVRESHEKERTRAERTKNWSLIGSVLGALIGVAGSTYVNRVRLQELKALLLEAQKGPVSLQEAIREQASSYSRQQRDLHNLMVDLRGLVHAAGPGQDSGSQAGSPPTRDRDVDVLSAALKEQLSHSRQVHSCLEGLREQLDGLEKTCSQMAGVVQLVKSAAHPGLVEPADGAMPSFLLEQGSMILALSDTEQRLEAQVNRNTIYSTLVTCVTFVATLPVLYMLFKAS
# UniProt P78371: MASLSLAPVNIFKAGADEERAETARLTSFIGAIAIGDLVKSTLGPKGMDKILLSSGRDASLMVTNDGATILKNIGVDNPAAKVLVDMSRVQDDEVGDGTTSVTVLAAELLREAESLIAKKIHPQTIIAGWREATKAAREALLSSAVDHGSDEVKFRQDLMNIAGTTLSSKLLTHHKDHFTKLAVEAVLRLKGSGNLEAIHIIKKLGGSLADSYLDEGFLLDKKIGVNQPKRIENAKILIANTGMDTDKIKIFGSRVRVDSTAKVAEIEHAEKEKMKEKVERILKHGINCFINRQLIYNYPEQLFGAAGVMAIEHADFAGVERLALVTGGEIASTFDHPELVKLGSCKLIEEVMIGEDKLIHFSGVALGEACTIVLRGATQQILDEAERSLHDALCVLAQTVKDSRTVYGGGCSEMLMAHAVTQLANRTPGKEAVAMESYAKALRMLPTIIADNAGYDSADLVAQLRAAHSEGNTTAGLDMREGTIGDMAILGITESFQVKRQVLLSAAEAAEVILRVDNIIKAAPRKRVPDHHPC
# UniProt P47756, whole entry, looked up: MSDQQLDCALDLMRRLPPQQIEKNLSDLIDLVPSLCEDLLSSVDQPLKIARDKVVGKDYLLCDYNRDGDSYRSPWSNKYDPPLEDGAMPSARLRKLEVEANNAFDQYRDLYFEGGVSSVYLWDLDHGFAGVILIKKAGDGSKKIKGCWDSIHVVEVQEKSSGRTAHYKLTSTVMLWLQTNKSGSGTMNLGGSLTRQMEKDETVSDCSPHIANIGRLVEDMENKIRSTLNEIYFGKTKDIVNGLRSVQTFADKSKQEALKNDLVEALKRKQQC
# Compound: Cc1cc(ccc1-c1ccccc1)C(=O)N1CCCN(CC1)C(=O)CCl [compound 10]
# Assay: probe-labelled cysteine peptide fold change vs DMSO (competition) (log2 fold change); higher = less target engagement (more negative = stronger competition)
# Conditions: THP-1, incubation time: 4 h
# 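Note: competitive profiling in live THP-1 cells: cysteine peptides tagged with an iodoacetamide desthiobiotin (IA-DTB) probe, intensity after compound treatment relative to DMSO-treated cells.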
Target,probe-labelled cysteine peptide fold change (10 µM),probe-labelled cysteine peptide fold change (50 µM)
CAPN1_P07384_351_LEICNLTPDALK (UniProt P07384),-0.0154,0.169
CAPN2_P17655_301_WNDNCPSWNTIDPEERER (UniProt P17655),-0.159,-0.451
CCT3_P49368_173_WSSLACNIALDAVK (UniProt P49368),0.321,0.129
CAPN1_P07384_678_YSEPDLAVDFDNFVCCLVR (UniProt P07384),0.0508,0.152
CCAR2_Q8N163_515_PGCVNLSLHGIVEDR (UniProt Q8N163),0.199,0.0744
CARS_P49589_405_YFLHTGHLTIAGCK (UniProt P49589),0.0479,0.0189
CAPZA2_P47755_157_IDGQQTIIACIESHQFQAK (UniProt P47755),-0.187,0.155
CBFB_Q13951_124_LDGMGCLEFDEER (UniProt Q13951),0.00622,0.226
CARD6_Q9BX69_637_NMEGLQAALQEVMFSSCLR (UniProt Q9BX69),-0.0846,-0.183
CAP1_Q01518_93_ALLVTASQCQQPAENK (UniProt Q01518),-0.00677,0.0761
CAPN7_Q9Y6W3_361_KVIIDDQLPVDHKGELLCSYSNNK (UniProt Q9Y6W3),-0.0297,-0.16
CCDC51_Q96ER9_331_TCSQMAGVVQLVK (UniProt Q96ER9),0.0365,-0.0554
CCT2_P78371_395_SLHDALCVLAQTVK (UniProt P78371),0.165,0.0995
CAPZB_P47756_8_SDQQLDCALDLMR (UniProt P47756),-0.139,0.237

# Quoted from the listing:
# Value for CAPN7_Q9Y6W3_361_KVIIDDQLPVDHKGELLCSYSNNK (UniProt Q9Y6W3) under probe-labelled cysteine peptide fold change (10 µM): -0.0297
# Value for CAPN1_P07384_678_YSEPDLAVDFDNFVCCLVR (UniProt P07384) under probe-labelled cysteine peptide fold change (50 µM): 0.152
